No constants are given. Whether binding was seen depends on the method and setting. Binding seen in cells or lysates may run through a third protein. Here binding means that the protein was enriched with, or labelled near, the bait; the list need not be complete. A no says only that the protein was not detected with the bait.
biological target: T1, TurboID-FGF13S (human) (UniProt Q92913); assay: proximity labelling; in vivo TurboID: NtTA/TurboID-FGF13S double-transgenic mice injected with biotin daily for 3 days (control 10% DMSO); whole-brain lysate, biotinylated proteins captured on streptavidin magnetic beads, quantitative DIA mass spectrometry; enriched = P < 0.05 and log2(biotin/DMSO) > 1
T1 sequence: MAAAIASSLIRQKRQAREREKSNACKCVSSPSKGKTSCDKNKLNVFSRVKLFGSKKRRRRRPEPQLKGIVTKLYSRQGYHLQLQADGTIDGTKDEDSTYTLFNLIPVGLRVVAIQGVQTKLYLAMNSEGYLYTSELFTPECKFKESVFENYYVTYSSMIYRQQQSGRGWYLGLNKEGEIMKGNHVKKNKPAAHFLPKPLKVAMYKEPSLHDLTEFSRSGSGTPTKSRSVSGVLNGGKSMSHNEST

Chains of the proteins cited; added tags and fusions are not shown. Residues count along the entry.
UniProt A2AG50: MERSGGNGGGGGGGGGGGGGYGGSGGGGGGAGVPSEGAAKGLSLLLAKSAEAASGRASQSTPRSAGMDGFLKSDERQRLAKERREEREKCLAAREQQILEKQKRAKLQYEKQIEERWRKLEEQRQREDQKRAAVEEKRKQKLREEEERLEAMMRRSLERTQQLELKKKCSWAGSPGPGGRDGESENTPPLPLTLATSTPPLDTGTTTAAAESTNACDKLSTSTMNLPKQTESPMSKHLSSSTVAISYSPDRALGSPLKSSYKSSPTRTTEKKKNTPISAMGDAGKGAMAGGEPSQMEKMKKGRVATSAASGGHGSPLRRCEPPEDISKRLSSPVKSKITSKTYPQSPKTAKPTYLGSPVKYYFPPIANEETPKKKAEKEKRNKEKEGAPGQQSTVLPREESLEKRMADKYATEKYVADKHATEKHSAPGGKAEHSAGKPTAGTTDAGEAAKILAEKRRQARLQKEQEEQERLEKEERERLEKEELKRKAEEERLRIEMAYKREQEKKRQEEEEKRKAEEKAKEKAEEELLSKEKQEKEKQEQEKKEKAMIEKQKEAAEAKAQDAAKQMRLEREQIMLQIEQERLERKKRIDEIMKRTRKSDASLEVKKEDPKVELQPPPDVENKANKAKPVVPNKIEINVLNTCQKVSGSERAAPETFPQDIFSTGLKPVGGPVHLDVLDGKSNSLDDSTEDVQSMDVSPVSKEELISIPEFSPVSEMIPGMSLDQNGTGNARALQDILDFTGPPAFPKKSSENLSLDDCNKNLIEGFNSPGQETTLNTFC
UniProt E9Q414, residues 28-4505: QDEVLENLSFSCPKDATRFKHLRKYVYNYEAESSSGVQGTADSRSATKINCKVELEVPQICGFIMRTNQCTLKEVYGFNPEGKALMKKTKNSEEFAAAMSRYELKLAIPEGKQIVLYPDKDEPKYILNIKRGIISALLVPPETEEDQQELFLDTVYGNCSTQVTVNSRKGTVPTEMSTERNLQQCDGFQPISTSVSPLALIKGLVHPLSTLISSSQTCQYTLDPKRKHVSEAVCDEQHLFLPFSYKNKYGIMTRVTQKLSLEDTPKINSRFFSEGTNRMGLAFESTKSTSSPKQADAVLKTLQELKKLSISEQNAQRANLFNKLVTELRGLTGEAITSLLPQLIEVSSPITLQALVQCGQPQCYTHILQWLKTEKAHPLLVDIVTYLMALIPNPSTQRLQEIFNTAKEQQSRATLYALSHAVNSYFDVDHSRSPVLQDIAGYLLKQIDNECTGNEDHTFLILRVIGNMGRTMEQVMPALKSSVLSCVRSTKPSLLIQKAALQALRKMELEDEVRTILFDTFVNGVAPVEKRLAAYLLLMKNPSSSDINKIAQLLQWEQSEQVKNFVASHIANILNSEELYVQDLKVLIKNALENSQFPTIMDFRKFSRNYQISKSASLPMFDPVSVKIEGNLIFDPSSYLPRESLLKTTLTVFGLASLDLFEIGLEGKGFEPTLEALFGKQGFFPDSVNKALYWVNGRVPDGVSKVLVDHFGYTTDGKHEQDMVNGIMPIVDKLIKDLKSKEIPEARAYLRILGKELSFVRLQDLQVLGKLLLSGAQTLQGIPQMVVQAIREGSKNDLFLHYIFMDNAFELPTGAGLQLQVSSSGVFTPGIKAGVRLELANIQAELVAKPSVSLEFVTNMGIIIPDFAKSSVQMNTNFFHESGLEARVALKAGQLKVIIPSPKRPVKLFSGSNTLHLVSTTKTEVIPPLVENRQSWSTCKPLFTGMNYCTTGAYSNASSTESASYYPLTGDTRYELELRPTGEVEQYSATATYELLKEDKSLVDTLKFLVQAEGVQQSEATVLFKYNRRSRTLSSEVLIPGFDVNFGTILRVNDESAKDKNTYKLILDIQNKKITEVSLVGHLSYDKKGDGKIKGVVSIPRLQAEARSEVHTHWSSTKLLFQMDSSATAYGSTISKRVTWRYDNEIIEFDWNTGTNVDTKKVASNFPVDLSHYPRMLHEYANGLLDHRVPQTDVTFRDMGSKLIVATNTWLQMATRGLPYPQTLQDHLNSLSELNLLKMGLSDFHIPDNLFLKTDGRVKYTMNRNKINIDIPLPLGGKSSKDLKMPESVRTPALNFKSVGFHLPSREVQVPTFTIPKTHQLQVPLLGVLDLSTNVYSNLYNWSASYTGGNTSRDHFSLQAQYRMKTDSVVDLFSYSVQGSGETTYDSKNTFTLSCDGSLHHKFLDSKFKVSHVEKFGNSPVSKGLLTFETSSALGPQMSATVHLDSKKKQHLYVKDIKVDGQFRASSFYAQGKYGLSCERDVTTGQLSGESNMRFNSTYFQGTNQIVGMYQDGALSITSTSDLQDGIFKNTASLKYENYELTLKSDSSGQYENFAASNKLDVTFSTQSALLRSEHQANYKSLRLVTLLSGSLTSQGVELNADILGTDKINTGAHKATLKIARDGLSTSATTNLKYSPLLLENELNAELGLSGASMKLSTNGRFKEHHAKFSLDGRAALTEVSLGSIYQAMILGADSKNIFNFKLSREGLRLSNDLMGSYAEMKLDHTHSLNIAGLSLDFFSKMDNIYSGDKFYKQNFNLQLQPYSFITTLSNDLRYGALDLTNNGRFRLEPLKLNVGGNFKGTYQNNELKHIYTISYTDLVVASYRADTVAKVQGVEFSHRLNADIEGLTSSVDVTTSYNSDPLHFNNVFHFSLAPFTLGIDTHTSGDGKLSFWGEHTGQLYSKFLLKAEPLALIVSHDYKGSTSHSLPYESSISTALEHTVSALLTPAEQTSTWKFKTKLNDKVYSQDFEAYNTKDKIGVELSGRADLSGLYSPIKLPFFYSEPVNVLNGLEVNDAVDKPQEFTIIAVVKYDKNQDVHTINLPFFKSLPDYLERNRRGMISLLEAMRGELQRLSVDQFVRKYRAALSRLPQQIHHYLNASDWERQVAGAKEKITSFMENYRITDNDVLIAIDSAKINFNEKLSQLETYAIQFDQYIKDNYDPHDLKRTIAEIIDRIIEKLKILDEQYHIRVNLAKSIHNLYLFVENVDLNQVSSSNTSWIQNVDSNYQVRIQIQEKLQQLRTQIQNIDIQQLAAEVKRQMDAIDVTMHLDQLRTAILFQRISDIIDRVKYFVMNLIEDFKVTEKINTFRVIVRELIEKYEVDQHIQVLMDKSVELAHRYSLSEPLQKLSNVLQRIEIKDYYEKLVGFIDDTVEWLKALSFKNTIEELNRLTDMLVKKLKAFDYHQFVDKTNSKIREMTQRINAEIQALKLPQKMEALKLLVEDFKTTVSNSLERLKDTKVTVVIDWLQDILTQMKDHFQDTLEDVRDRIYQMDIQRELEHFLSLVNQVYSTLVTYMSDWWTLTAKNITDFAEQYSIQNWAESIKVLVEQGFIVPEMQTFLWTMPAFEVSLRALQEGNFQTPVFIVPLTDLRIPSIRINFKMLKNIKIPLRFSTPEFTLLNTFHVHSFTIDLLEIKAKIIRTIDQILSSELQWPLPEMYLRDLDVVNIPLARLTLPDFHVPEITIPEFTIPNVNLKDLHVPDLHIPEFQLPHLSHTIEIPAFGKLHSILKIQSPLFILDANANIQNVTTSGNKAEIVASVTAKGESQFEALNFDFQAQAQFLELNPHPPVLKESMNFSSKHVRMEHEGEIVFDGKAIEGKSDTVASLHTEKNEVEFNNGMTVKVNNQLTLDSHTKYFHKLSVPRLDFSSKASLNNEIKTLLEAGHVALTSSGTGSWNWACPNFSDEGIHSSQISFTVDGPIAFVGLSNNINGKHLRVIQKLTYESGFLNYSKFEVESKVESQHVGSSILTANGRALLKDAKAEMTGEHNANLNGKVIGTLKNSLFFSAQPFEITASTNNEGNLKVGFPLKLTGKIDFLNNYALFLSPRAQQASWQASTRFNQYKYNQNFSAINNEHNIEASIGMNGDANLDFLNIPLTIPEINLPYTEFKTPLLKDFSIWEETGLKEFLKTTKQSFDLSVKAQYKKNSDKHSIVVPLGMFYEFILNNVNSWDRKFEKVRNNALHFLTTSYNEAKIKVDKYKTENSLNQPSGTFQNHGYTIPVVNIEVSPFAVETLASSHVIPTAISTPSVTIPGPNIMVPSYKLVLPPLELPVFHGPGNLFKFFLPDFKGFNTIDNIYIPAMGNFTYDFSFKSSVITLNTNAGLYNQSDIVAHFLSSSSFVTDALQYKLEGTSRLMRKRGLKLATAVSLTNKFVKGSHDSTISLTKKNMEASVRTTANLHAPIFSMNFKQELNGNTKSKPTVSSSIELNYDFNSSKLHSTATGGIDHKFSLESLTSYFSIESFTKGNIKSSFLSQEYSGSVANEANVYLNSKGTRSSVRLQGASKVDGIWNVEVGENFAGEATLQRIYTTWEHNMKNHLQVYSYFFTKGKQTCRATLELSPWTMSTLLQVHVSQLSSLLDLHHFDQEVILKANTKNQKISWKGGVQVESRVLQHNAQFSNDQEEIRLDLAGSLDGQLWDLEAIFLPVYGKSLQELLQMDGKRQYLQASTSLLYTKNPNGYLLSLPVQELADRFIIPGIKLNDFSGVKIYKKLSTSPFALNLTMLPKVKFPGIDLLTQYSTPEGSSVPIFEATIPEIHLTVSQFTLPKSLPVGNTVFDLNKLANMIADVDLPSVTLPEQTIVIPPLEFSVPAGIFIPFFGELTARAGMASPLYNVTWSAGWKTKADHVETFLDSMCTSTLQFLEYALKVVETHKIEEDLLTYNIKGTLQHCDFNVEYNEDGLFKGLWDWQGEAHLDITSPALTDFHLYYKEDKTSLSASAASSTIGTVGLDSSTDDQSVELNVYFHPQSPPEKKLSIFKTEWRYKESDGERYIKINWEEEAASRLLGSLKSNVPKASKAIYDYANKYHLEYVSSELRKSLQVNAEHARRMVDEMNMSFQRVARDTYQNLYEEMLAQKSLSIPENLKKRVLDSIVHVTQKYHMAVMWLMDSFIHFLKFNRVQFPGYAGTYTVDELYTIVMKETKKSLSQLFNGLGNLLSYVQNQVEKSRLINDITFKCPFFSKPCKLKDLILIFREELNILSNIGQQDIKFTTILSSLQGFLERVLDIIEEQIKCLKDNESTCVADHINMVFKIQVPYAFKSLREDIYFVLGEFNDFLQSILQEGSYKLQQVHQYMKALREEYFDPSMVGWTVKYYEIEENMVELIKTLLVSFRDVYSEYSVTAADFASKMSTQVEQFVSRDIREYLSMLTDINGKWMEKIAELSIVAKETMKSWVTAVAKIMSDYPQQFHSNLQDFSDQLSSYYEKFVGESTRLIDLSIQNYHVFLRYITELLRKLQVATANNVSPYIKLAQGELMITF
UniProt Q9Z351: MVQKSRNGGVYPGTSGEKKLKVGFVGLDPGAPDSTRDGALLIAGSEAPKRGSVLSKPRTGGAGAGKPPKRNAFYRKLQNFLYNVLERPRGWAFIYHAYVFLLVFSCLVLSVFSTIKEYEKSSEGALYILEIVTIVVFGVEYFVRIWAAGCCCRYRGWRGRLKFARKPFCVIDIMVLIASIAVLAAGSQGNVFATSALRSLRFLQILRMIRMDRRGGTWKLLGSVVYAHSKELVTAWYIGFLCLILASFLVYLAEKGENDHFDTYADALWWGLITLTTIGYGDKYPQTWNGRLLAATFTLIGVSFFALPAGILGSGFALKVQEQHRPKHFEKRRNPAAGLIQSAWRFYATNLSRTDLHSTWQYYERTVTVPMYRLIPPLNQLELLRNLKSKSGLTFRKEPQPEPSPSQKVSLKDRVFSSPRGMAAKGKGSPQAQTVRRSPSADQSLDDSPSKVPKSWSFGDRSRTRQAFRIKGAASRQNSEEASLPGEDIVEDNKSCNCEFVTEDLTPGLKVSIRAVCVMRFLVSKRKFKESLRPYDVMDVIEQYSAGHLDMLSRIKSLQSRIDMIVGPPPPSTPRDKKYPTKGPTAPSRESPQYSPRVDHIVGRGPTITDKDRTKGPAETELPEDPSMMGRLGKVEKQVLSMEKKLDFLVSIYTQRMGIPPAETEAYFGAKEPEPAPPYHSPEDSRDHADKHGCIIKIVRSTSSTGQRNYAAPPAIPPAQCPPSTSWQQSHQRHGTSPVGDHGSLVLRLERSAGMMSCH
UniProt P97952, residues 19-218: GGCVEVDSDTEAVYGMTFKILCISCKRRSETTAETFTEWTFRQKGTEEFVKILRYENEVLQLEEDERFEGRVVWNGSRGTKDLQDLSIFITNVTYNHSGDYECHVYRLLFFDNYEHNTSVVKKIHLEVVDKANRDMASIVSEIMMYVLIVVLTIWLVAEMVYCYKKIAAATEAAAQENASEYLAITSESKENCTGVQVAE

binding | Molecule
binds | MAP7D2 (from UniProt A2AG50 1-781)
no binding | APOB (from UniProt E9Q414 28-4505)
binds | MICAL3 (from UniProt Q8CJ19 1-1993)
binds | KCNQ2 (from UniProt Q9Z351 1-759)
no binding | Sodium channel regulatory subunit β1 (from UniProt P97952 19-218)
binds | KV2.2 (protein, UniProt A6H8H5 1-907) MAEKAPPGLNRKTSRSTLSLPPEPVDIIRSKTCSRRVKINVGGLNHEVLWRTLDRLPRTRLGKLRDCNTHESLLEVCDDYNLNENEYFFDRHPGAFTSILNFYRTGKLHMMEEMCALSFGQELDYWGIDEIYLESCCQARYHQKKEQMNEELRREAETMREREGEEFDNTCCPEKRKKLWDLLEKPNSSVAAKILAIVSILFIVLSTIALSLNTLPELQENDEFGQPSDNRKLAHVEAVCIAWFTMEYLLRFLSSPNKWKFFKGPLNVIDLLAILPYYVTIFLTESNKSVLQFQNVRRVVQIFRIMRILRILKLARHSTGLQSLGFTLRRSYNELGLLILFLAMGIMIFSSLVFFAEKDEDATKFTSIPASFWWATITMTTVGYGDIYPKTLLGKIVGGLCCIAGVLVIALPIPIIVNNFSEFYKEQKRQEKAIKRREALERAKRNGSIVSMNLKDAFARSMELIDVAVEKAGESANTKDSVDDNHLSPSRWKWARKALSETSSNKSYENKYQEVSQNDSHEHLNNTSSSSPQHLSAQKLEMLYNEITKTQPHSHPNPDCQEQPERPCVYEEEIEMEEVICPQEQLAVAQTEVIVDMKSTSSIDSFTSCATDFTETERSPLPPPSASHLQMKFPTDLPGTDEHQRARAPPFLTLSRDKGPAAREAAVDYAPIDITVNLDAGASHGPLQPDSASDSPKSSLKGSNPLKSRSLKVNFQENRASAPQTPPSTARPLPVTTADFPLTTPQHMSTILLEEALPQGQPPLLEADDSAHCQGPSKGFSPRFPKQKLFPFSSRERRSFTEIDTGEDEDFLDLQRSRPDKQADPSPNCLADKPGDARDSLREEGCVGSSSPQNTDHNCRQDIYQAVGEVKKDSSQEGYKMENHLFAPEIHSNPGDTGHCPTRETSM
no binding | TEC kinase (enzyme, UniProt P24604 1-630) MNFNTILEEILIKRSQQKKKTSLLNYKERLCVLPKSVLSYYEGRAEKKYRKGVIDISKIKCVEIVKNDDGVIPCQNKFPFQVVHDANTLYIFAPSPQSRDRWVKKLKEEIKNNNNIMIKYHPKFWADGSYQCCRQTEKLAPGCEKYNLFESSIRKTLPPAPEIKKRRPPPPIPPEEENTEEIVVAMYDFQATEAHDLRLERGQEYIILEKNDLHWWRARDKYGSEGYIPSNYVTGKKSNNLDQYEWYCRNTNRSKAEQLLRTEDKEGGFMVRDSSQPGLYTVSLYTKFGGEGSSGFRHYHIKETATSPKKYYLAEKHAFGSIPEIIEYHKHNAAGLVTRLRYPVSTKGKNAPTTAGFSYDKWEINPSELTFMRELGSGLFGVVRLGKWRAQYKVAIKAIREGAMCEEDFIEEAKVMMKLTHPKLVQLYGVCTQQKPIYIVTEFMERGCLLNFLRQRQGHFSRDMLLSMCQDVCEGMEYLERNSFIHRDLAARNCLVNEAGVVKVSDFGMARYVLDDQYTSSSGAKFPVKWCPPEVFNYSRFSSKSDVWSFGVLMWEIFTEGRMPFEKNTNYEVVTMVTRGHRLHRPKLATKYLYEVMLRCWQERPEGRPSLEDLLRTIDELVECEETFGR
no binding | BTBD17 (protein, UniProt Q9DB72 29-478) AQRADVGGEAAGTAINHSHMLLQRLQDLLRQGNASDVILRVQAVGTDEVRAFHTHRLLLGLHSELFRELLSNQSEVMLRESRDCAAVFDKFIRYLYCGELTVLLAQAIPLHRLATKYRVASLQRGVADYMRAHLAGGVGPAVGWYHYAVSTGDEALRESCLQFLAWNLSAVAGSAEWGAVSPELLAQLLQRSDLVLQDELELFHALEAWLGRARPPPTVAERALRAIRYPMIPPAQLFQLQARSAALARHGPAVADLLLQAYQFHAASPLHYAKFFHVNGSAFLPRNYLAPAWGAPWVINNPARDDRSTSFQTQLGPSGHDAGRRITWNVLFSPRWLPVSLRPVYADAAGTALPAARPEDGRPRLVVTPASSGGDAAGVSFQKTVLVGARHQGRLLVRHAYSFHQSSEEAGDFLAHADLQRRNSEYLVENALHLHLIVKPVYHTLIRTPS

From publication PMC12890474
